Data published in patent US20240335575A1, “METHOD AND APPARATUS FOR INACTIVATING PATHOGENS IN UNITS OF WHOLE BLOOD USING SUPERPARAMAGNETIC NANOPARTICLES COATED WITH CHEMILUMINESCENCE REAGENTS AND BROAD-SPECTRUM ANTI-VIRAL THERAPEUTICS” (Aphios Corporation, priority 2021, published 2024).
At least one structure is not confirmed: it was looked up by name or label, or the drawing left a doubt.

Legend:
HIV and hepatitis C = conditions: pilot studies; cited from earlier work
HIV-1ΔtatΔrev = test: Virucidal effect of chemiluminescence-induced hypericin action with luminescence enhancer (p24, CEM-TART cells); type: cell-based; conditions: virus pre-treated 2 hours at 37° C. with hypericin 5 μmol, luminescence substrate with Ruby enhancer and different doses of alkaline phosphatase; triplicate
BVDV = test: Hypericin with luciferase or CDP-Star, BVDV in spiked Red Blood Cell Concentrates; type: cell-based, Bovine Viral Diarrhea Virus; conditions: spiked RBCC

## Cc1cc(O)c2c(=O)c3c(O)cc(O)c4c5c(O)cc(O)c6c(=O)c7c(O)cc(C)c8c1c2c(c34)c(c78)c65 [Hypericin]
HIV and hepatitis C
  benefit in infected individuals: negative result
HIV-1ΔtatΔrev
  virucidal effect (HIV replication by p24): inactivation dependent on the concentration of the luminogenic enzyme
BVDV; hypericin 40 μg/mL with CDP-Star 0.1 or 1 mM
  BVDV inactivation: completely inactivated
BVDV; hypericin 40 μg/mL with luciferase 0.16, 0.32 or 0.80 μM
  BVDV inactivation: completely inactivated
